Measured values from paper PMC12040169 (PLOS Biology, 2025).
Some of the results follow.

System: T1, CTL2-GFP (C. trachomatis L2/434/Bu, GFP-expressing)
T1 construct: L2/434/Bu, GFP-expressing
Parameters: species or system HeLa; Intracellular C. trachomatis growth in HeLa cells, bulk GFP fluorescence relative to DMSO
Conditions: bulk GFP, single well; 28.5 h, 10 µM; inhibitor

Structure (SMILES)	% of control remaining [%]
Cc1nc2ccccc2c(SCCC(=O)O)c1Cc1ccccc1 [CBK144942T]	81.6506
CCCOc1ncccc1O [CBK001459]	101.176
COc1ccc(S(=O)(=O)Nc2nccnc2-c2ccc3[nH]ccc3c2)cc1 [CBK050805]	168.223
COc1cc2c(cc1OC)CN(C(=O)N(CCN)CCC(C)c1ccccc1)CC2 (stereo not shown) [CBK000612C]	116.113
Nc1nonc1-n1nnc(C(=O)N/N=C2\CCc3ccccc32)c1-c1ccccc1 [CBK261988]	100
CCCC(=O)Nc1ccc(OCc2ncc(C(C)(C)C)o2)c(C(C)=O)c1 [CBK305218]	145.352
CCCc1n[nH]c(C2CCCC2)c1C(=O)OCC [CBK115727]	103.486
O=C(NCc1ccc(-c2csnn2)cc1)c1ccc(Oc2ccccc2)cc1 [CBK149300]	98.8126
Cn1cc(CN2CCCN(C(=O)c3ccc4ccccc4n3)CC2)cn1 [CBK305369]	92.9738
CN(/N=C/c1cc(Br)cs1)c1ccc(Cl)nn1 [CBK028729]	123.1
O=C(NCc1ccc(OC2CCNCC2)cc1)c1cccs1 [CBK036353T]	112.612
Cc1ccc(S(=O)(=O)N(C)CCCC(=O)n2cnc3ccccc32)cc1 [CBK264457]	127.368
Cc1cnc2[nH]c(C(F)(F)F)c(CN3CCN(C)CC3)c2c1 [CBK284765]	153.097
COc1cccc(C(NC(=O)c2cc(CN3CCOCC3)c(C)o2)c2ccccc2)c1 (stereo not shown) [CBK286279]	120.781
CCN(CC(=O)NCc1cccs1)C(=O)CN1CCCC1c1ccc(C)cc1 (stereo not shown) [CBK297761]	146.517
Cc1cc(CNC(=O)C2=CC(=O)CC(C)(C)O2)no1 [CBK153281]	87.3339
CCO/C(C)=C/c1sc2ccc3ccccc3c2[n+]1CCCS(=O)(=O)[O-] [CBK260948]	100
COc1cccc(Nc2nnc(-c3cc4cc(OC)ccc4oc3=O)s2)c1 [CBK264432]	100
O=C(NCCSCc1ccco1)Nc1cccc(Cl)c1 [CBK268277]	91.3561
Nc1nc(-c2ccccc2I)n[nH]1 [CBK027413]	147.092

Structure (SMILES)	% of control remaining [%]
c1ccc(CCCN2CCN(Cc3ccccn3)CC2)cc1 [CBK263461G]	126.364
Cc1cc(/C=N\NC(=O)c2cc3ccccc3cc2O)c(C)n1-c1ccccc1 [CBK261801]	100
COc1ccc(C(=O)CN2CCC3(CC2)CC(=O)c2cc(Br)ccc2O3)cc1 [CBK162265]	97.5453
CCOC(=O)CCNC(=O)/C=C/c1ccc(C(C)C)cc1 [CBK149643]	122.43
Nc1nc(C2CC(N)C2)cc(N2CCC(Oc3ccccc3F)CC2)n1 (stereo not shown) [CBK306909]	129.422
NC(=O)Nc1ccc2c(c1)ncn2C1CCCCC1 [CBK288176]	152.039
COc1ccc(/C=C(\C)C(=O)Nc2cccnc2N2CCNCC2)cc1OC [CBK034124T]	109.212
Cc1ccc(-c2nc(C3CCCN3C(=O)C3CC3C(=O)O)n3ccccc23)cc1 (stereo not shown) [CBK046559]	188.302
CN1CCC(C(=O)Nc2cnc(-c3cccc(OC(F)(F)F)c3)c(-c3cccnc3)n2)CC1 [CBK036882]	216.342
CCOC(=O)C1CC1CN1CCN(S(=O)(=O)c2ccc(OCC)c3ncccc23)CC1 (stereo not shown) [CBK062785]	117.89
CC(C)Nc1cncc(OCC2CN(C)CCN2C)n1 (stereo not shown) [CBK115602]	100
C[C@@H]1C(=O)Nc2ccc(F)cc2N1C(=O)N1CCCC1 [CBK007936]	105.292
CCOc1ccc2c(c1)C(=O)c1cc(OCC(=O)O)ccc1-2 [CBK286693]	122.836
CCCCNc1nnc(-c2nn(C)cc2Cl)s1 [CBK288021]	117.271
Nc1ncc(-c2cccs2)nc1-c1ccc(C(=O)O)cc1 [CBK064133]	139.931
Cc1ccc(S(=O)(=O)NC(C)(C)CSc2nnc[nH]2)cc1 [CBK268374]	150.882
CC(NC(=O)c1n[nH]c2c1CCC2)c1cccnc1 (stereo not shown) [CBK281488]	112.798
Cc1occc1-c1nnc(SCC(=O)Nc2ccccc2)n1C [CBK270308]	122.398
CCNC(=O)CN1CCN(C(C(=O)O)c2c[nH]c3ccc(C)cc23)CC1 (stereo not shown) [CBK286694]	110.224
COC(=O)CCc1ccc(S(=O)(=O)N2CCCN(Cc3cccc(Cl)c3Cl)CC2)cc1 [CBK062988]	112.292
